{
  "sequences": {"note": "The chains behind the UniProt entries cited, without tags or fusion partners.", "UniProt Q66H76": "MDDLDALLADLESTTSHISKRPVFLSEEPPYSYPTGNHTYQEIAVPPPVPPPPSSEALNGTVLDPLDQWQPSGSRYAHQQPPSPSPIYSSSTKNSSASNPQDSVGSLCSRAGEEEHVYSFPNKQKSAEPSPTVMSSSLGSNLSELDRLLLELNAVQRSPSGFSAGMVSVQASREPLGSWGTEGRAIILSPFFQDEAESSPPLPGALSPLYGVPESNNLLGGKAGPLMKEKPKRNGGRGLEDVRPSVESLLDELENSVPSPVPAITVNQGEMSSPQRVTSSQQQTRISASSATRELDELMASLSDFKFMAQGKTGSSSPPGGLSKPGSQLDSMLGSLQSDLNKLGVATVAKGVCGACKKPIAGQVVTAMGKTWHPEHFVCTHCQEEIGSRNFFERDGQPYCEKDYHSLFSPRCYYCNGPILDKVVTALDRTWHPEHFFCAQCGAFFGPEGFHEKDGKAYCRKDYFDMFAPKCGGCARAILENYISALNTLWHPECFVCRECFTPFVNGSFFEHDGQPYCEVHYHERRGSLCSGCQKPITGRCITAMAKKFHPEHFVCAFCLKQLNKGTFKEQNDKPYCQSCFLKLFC"},
  "source": "paper PMC1940015",
  "key": {"α4S988A (human)": {"target": "T1, α4S988A (human) (UniProt P13612)", "T1 sequence (chain, biotin (cell surface molecules labelled with NHS-LC-Biotin))": "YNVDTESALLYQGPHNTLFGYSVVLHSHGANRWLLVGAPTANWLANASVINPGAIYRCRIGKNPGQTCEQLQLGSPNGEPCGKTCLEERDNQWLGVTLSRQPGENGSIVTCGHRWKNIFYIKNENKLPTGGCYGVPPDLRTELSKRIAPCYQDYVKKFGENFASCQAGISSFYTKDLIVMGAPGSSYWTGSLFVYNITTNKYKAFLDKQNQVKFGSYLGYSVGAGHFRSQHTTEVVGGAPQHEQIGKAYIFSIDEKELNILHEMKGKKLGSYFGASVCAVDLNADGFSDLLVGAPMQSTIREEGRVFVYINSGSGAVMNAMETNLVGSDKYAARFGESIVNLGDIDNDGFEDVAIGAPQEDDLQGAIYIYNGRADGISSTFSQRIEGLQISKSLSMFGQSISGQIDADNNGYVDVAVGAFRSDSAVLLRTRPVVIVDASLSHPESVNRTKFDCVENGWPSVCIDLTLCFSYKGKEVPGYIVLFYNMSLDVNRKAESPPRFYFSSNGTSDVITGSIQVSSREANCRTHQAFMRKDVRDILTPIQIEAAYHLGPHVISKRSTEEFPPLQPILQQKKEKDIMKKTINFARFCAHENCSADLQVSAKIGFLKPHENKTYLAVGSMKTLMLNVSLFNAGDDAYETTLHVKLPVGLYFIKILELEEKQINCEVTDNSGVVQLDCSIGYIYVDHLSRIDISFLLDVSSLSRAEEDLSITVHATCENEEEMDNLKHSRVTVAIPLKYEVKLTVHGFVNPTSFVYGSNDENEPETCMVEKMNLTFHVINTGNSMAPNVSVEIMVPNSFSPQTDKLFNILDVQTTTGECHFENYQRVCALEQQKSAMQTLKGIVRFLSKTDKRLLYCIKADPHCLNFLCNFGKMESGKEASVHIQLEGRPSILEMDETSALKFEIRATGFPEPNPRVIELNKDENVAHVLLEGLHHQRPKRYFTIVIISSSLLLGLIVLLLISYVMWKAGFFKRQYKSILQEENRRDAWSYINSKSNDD", "test": "co-IP; 1% Triton X-100 lysates of biotin-labelled PC12 cells expressing the α4 constructs; immunoprecipitated overnight at 4°C with anti-human α4 extracellular domain antibody; beads washed with 0.5 M NaCl, 1% NP40 buffer; western blot with anti-paxillin antibody"}, "α4Y991A (human)": {"target": "T2, α4Y991A (human) (UniProt P13612)", "T2 sequence (chain, biotin (cell surface molecules labelled with NHS-LC-Biotin))": "T1 sequence (chain, biotin (cell surface molecules labelled with NHS-LC-Biotin)) with A988S, Y991A", "test": "co-IP; 1% Triton X-100 lysates of biotin-labelled PC12 cells expressing the α4 constructs; immunoprecipitated overnight at 4°C with anti-human α4 extracellular domain antibody; beads washed with 0.5 M NaCl, 1% NP40 buffer; western blot with anti-paxillin antibody"}},
  "note": "Residue numbers refer to the chain shown, from its start. Results are given in words; binding and its absence hold for the method and conditions named. In cells and extracts the contact can be indirect. Some entries that bind do so weakly or less than the wild type.",
  "data": [
    {"substance": "paxillin (endogenous in PC12 cells) (from UniProt Q66H76 1-586)", "values": [
      {"measurement": "binding", "setting": "α4S988A (human)", "value": "binds"},
      {"measurement": "binding", "setting": "α4Y991A (human)", "value": "binds"}
    ]}
  ]
}
